## Screening data, single-dose tests

Protein sequences, listed by entry. Tags and fused reporters are not part of them.
UniProt P9WFT3, whole entry: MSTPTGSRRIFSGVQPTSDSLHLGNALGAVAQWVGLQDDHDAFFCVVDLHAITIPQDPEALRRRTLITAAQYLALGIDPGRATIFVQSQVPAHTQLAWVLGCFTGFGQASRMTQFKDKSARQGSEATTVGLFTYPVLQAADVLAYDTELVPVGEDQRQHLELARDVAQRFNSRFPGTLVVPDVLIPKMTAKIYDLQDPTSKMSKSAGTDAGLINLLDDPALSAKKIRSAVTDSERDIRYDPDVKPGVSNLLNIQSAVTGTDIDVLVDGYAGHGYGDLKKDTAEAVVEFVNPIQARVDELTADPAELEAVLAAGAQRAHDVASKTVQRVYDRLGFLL

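Tryptophan-tRNA ligase, Mycobacterium tuberculosis (UniProt P9WFT3). Enzyme assay of tryptophanyl-tRNA synthetase; the read-out is not stated. Tested at 10 µM. Direction is not recorded; retested compounds ran higher, which suggests that high means inhibition. Of about 65,000 compounds tested this way, about 64 (0.098%) reached 50% or more in at least one test.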

The filed quantity is “Percent Effect” (%). The record does not define 0% and 100%; most values in the screen are far below 50% and negative numbers occur (in some assays of this library far below -100). Compounds were drawn at random from those tested, without regard to their results.

SMILES,effect
CCN(CC)C(=O)COc1nc(C(C)C)no1,0.9331
Cc1ccc(CN(C)Cc2cc(C3CC3)[nH]n2)c(O)n1,-4.931
O=c1[nH]c(NCCO)nc2c1C1(CCCC1)Cc1ccccc1-2,-4.022
O=C(NCc1sc2ccccc2c1Cl)c1cc2n(n1)CCNC2,2.601
COc1ncccc1CN1C[C@@H]2COC[C@]2(CNS(C)(=O)=O)C1,-2.49
CS(=O)(=O)N1CCOC2(CCCC2)C1,2.346
Cc1cc(N2CCC(n3cc(CCCO)nn3)CC2)ccn1,-0.08211
COCCN1Cc2ccnn2CC(COCc2cccnc2)C1 (centres undefined),-5.353
Cc1ccc(S(=O)(=O)c2ncccc2CN2CCOCC2)cc1,-1.611
Cc1nc[nH]c1CN1C[C@@H]2OCCN(c3ncccn3)[C@@H]2C1,-3.374
O=C1N(CC2CC2)CCCC1(O)CN1CCc2[nH]ncc2C1 (centres undefined),-1.147
O=C(NCC1CC1)[C@@H]1CC[C@@H]2[C@@H](CCN2Cc2ccc(F)c(F)c2)O1,-7.35
c1cnc(-c2nc(CN3CCC(c4ccn[nH]4)CC3)cs2)nc1,-2.818
CCN1CCN(C(=O)C(C)N2CCc3cncnc3C2)CC1 (centres undefined),1.341
CC1(C(N)=O)CN(CC2CCOCC2)CCO1 (centres undefined),12.53
Cc1ccc(C2CN(CCS(=O)(=O)C(C)C)CCO2)c(C)c1 (centres undefined),-8.149
CCN1CC[C@@]2(C(=O)N(C)C)CCN(C(=O)NC(C)C)CC[C@@H]12,-3.638
O=C(c1cc(COc2ccc3c(c2)OCO3)[nH]n1)N1CCOCC1,-6.003
CC(c1ccncc1)N(C)S(C)(=O)=O (centres undefined),-3.608
Cc1cnc(N2CCOC3(CCCN(CC(=O)N(C)C)C3)C2)nc1 (centres undefined),2.609
CC(NC(=O)NCc1cccnc1N(C)C)c1cccs1 (centres undefined),-3.52
COC(=O)c1cccc2nc([C@H]3CCN(Cc4ccccc4C)C3)oc12,-2.212
Cn1ncc(NCc2cccc(F)c2)c(Cl)c1=O,-3.874
CN(CC(=O)NC(Cc1ccsc1)c1cccnc1)Cc1cccnc1 (centres undefined),15.96
CCNC(=O)[C@@H]1C[C@@H](NC(=O)Cc2cc(C)no2)CN1Cc1ccsc1,4.079
C[C@@H]1CN(Cc2cccc(F)c2)C[C@]12CCN(Cc1cccnc1)C2=O,-3.317
CN(Cc1cc(C(C)(C)C)n[nH]1)C(=O)c1ccccc1C1CCNC1 (centres undefined),-5.578
Cn1ccnc1SCCNC(=O)Cn1cnc2ccccc2c1=O,1.326
COc1ccc(CC(=O)N2CCC[C@@H](N)[C@@H]2c2ccccc2F)cc1,-1.823
Cc1cccc2c1OCCC2NCc1c(C(C)C)nn(C)c1N(C)C (centres undefined),-4.092
Cc1nc(CN2CCCC2c2c(C)nn(C)c2Cl)no1 (centres undefined),5.556
Cc1ccc2[nH]c([C@H]3CCN(CC4CCCCC4)C3)nc2c1,-2.184
O=C(Cc1ccccn1)N1CCN(CC2CC2)c2ncccc2C1,0.7048
COc1cccc(-c2noc(C3CCN(Cc4cccs4)C3)n2)c1 (centres undefined),-0.5833
Cc1ccc(CN2CCC3(CCCN(S(C)(=O)=O)C3)C2)o1 (centres undefined),-2.199
CN(C)C(=O)N1CCn2nc(CNC(=O)CCc3ccccn3)cc2C1,-1.365
O=C(CCc1ccccn1)N1CCCC1,-7.147
CC(C)c1ccc(OCCC(=O)N(C)C)cc1,-0.6796
COCCN1CC[C@H](OC)[C@@H]1Cc1ccccc1,2.075
O=C1CCC(=O)N1CCn1nnc(-c2cccc(Cl)c2)n1,0.9202
O=C(NCc1cccc(F)c1)c1cccc(C(=O)N2CCCC2)n1,-2.02
Cc1ccc(OCC2CCCN(c3nc(CO)cs3)C2)cc1 (centres undefined),6.452
CC(=O)N1[C@H](Cn2cncn2)C[C@@H]2CN(Cc3ccccn3)CC[C@@H]21,5.112
CN(Cc1n[nH]c2c1CCCC2)c1cc(N2CCOCC2)nc(N)n1,-4.045
CCCn1ccc2cc(NC(=O)NCCn3cnnc3CC)ccc21,-3.269
CC(C)n1ccnc1C1CCN(Cc2ccc(Cl)c(F)c2)CC1,0.08285
Cc1nn(C)c(C)c1CN(C)c1nc(C2CCCC2)nc2c1cnn2C,3.815
Cc1noc(C)c1CN1CC[C@H]2OCC[C@@H](C(=O)N3CCCO3)[C@@H]2C1,0.1049
CCn1cnnc1CNC(=O)c1cc(Cl)ccc1F,-9.201
CN(C)Cc1cc(C2CCN(C(=O)C3CCCNC3)CC2)nn1C (centres undefined),-0.6285
Cc1[nH]ccc1C(=O)N1CCCC(c2ccc(C(=O)O)cc2)C1 (centres undefined),5.509
Cc1cnn(CCC(=O)N2CCN(c3ncccc3Cl)CC2)c1,-3.606
Cc1noc(C)c1S(=O)(=O)NC(=O)COc1ccc2c(c1)CCC2,5.08
O=C(O)C1c2nc[nH]c2CCN1CC(c1ccccc1)c1ccccc1 (centres undefined),-0.602
Cc1cnn(CCNCc2ccccc2OCc2ccccn2)c1,1.534
CC(=O)N1CCCC(c2ccc(Nc3nc(C)cc(C)n3)cn2)C1 (centres undefined),-1.233
Cc1ncsc1C(=O)N(C)Cc1ccncc1,0.7862
Cc1ccc(NC2CCN(C(=O)c3cnn(C(C)(C)C)c3)CC2)nn1,-5.221

Once more, the final 8:

SMILES,effect
Cc1[nH]ccc1C(=O)N1CCCC(c2ccc(C(=O)O)cc2)C1 (centres undefined),5.509
Cc1cnn(CCC(=O)N2CCN(c3ncccc3Cl)CC2)c1,-3.606
Cc1noc(C)c1S(=O)(=O)NC(=O)COc1ccc2c(c1)CCC2,5.08
O=C(O)C1c2nc[nH]c2CCN1CC(c1ccccc1)c1ccccc1 (centres undefined),-0.602
Cc1cnn(CCNCc2ccccc2OCc2ccccn2)c1,1.534
CC(=O)N1CCCC(c2ccc(Nc3nc(C)cc(C)n3)cn2)C1 (centres undefined),-1.233
Cc1ncsc1C(=O)N(C)Cc1ccncc1,0.7862
Cc1ccc(NC2CCN(C(=O)c3cnn(C(C)(C)C)c3)CC2)nn1,-5.221

Data taken from ChEMBL document CHEMBL3988442, “University of Dundee, Small-Polar-MMV Screening Library” (2021).